Residue numbers refer to the chain shown, from its start. Like-named read-outs stand apart in the source and are kept apart here. Results are given in words; binding and its absence hold for the method and conditions named. Some binding calls cover weakened binding; strength is not graded here. Sequences can lack the tags named with a protein.
Assays:
Test in all cases: pull-down
[1] = molecular target: T1, LZTR1^L580P recombinant protein (LZTR1-Myc-6xHis with p.L580P) (human) (UniProt Q8N653)
T1 sequence: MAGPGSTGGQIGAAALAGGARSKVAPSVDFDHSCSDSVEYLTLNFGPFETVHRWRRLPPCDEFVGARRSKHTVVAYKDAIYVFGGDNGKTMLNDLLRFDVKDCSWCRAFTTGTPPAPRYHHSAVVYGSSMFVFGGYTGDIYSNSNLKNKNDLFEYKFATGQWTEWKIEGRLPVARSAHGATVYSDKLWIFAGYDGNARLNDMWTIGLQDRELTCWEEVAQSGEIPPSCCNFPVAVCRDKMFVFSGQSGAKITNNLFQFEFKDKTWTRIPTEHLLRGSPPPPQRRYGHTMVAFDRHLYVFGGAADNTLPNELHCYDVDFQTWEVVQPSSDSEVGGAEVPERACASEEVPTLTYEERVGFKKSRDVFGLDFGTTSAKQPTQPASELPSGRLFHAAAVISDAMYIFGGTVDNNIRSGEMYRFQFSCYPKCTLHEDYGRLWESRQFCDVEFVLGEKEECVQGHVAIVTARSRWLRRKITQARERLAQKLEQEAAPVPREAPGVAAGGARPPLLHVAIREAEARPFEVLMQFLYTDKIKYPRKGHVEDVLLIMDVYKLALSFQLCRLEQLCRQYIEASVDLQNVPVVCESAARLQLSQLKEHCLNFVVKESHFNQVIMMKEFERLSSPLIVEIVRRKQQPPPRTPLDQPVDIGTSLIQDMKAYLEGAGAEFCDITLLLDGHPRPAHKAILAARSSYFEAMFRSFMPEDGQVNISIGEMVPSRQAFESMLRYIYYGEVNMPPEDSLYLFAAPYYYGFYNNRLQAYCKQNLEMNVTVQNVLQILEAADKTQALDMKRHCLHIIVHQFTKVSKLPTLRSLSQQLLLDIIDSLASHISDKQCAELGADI

By UniProt entry, the sequences of proteins in these tests, tags left out.
UniProt Q92963: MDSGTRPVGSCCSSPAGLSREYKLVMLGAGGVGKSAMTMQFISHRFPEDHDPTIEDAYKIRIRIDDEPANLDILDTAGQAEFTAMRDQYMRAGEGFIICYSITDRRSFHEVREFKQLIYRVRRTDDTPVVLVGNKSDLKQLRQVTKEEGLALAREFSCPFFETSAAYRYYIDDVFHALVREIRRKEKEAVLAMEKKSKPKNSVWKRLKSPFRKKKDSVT

[2] = molecular target: T2, LZTR1^WT recombinant protein (LZTR1-Myc-6xHis) (human) (UniProt Q8N653)
T2 sequence: T1 sequence with P580L

[3] = molecular target: T1, LZTR1^L580P recombinant protein (LZTR1-Myc-6xHis with p.L580P) (human); remark: listed apart in the source
[4] = molecular target: T2, LZTR1^WT recombinant protein (LZTR1-Myc-6xHis) (human); remark: listed apart in the source

binding [1]: binds | binding [2]: binds | binding [3]: binds | binding [4]: binds
Substance: GST-fused RIT1 (from UniProt Q92963 1-219)

— paper doi:10.1101/2023.01.10.523203 (bioRxiv, 2023)
